{"source": "patent US20150225469A1", "binders": {"B1": {"name": "BBF2H7 C terminus peptide of mouse chondrocytes (extracellularly secreted C terminus partial peptide of mouse BBF2H7) (peptide)", "chain": "IYEEHAPLEESSSPASAGELGGWDRGSSLLRASSGLEALPEVDLPHFLISNETSLEKSVLLELQQHLVSSKLEGNETLKVVELERRVNATF"}}, "key": {"Patched1 (Ptch1) (mouse) [1]": {"target": "T1, Patched1 (Ptch1) (mouse) (UniProt Q61115)", "T1 sequence (looked up)": "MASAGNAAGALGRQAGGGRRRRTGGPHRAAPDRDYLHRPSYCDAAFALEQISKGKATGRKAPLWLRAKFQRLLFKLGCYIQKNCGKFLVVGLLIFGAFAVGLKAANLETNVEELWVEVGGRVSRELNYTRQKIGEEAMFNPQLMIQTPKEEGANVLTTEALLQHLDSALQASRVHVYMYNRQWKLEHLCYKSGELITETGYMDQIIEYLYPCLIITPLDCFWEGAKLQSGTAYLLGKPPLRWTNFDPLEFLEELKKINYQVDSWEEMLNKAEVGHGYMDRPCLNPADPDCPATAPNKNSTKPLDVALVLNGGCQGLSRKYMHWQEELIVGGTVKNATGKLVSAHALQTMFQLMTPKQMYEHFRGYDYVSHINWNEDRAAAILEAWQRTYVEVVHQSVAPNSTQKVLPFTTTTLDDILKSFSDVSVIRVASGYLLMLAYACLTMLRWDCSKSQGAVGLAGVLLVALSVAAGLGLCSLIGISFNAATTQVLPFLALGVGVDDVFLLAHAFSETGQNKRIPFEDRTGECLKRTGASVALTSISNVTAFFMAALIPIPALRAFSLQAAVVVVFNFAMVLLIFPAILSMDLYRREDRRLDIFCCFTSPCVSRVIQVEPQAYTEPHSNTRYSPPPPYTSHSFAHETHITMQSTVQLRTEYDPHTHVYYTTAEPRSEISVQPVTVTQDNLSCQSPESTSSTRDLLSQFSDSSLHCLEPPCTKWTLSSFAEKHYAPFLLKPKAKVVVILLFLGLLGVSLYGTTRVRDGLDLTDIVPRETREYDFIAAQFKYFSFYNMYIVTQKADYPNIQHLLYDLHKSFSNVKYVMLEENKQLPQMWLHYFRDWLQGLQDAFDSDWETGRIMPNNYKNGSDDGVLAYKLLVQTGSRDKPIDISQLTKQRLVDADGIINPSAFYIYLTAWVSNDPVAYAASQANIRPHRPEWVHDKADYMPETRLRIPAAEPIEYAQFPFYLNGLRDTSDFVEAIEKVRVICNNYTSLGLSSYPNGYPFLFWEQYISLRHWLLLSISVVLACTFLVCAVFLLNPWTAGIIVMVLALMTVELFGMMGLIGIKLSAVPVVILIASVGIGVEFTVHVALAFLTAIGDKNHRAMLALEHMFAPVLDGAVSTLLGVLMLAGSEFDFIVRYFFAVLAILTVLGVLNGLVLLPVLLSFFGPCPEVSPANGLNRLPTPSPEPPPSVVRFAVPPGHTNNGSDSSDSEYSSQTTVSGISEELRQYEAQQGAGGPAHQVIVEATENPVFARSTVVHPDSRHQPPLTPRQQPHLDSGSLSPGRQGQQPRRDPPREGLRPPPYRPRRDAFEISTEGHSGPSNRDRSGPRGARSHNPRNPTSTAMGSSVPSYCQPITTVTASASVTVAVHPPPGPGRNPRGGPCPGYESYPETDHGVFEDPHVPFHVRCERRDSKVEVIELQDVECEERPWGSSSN", "assay": "co-immunoprecipitation from mouse chondrocyte lysate with anti-human BBF2H7 C terminus polyclonal antibody, blotted with a Ptch1 antibody"}, "Patched1 (Ptch1) (mouse) [2]": {"target": "T1, Patched1 (Ptch1) (mouse)", "assay": "co-immunoprecipitation from mouse chondrocyte lysate with anti-human BBF2H7 C terminus polyclonal antibody, blotted with anti Ptch1 antibody"}}, "note": "No constants are given. Whether binding was seen depends on the method and setting. Binding seen in cells or lysates may run through a third protein. Some entries that bind do so weakly or less than the wild type.", "data": [{"binder": "B1", "values": [{"measurement": "binding", "setting": "Patched1 (Ptch1) (mouse) [1]", "value": "binds"}, {"measurement": "binding", "setting": "Patched1 (Ptch1) (mouse) [2]", "value": "binds"}]}]}
